This list was built around the results that the source calls inconclusive (neither active nor inactive); the mix of calls is not that of the screen. Calls of active or inactive are those of the source.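 How the source made its calls: active means every repeat run fits a falling-signal curve with half-maximal potency within ten times top tested dose; inconclusive means runs disagree, or flat moderate drop, or poor fit; inactive means every run inactive, including signal moving upward.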
assay: ADP-Glo luciferase signal interference – biochemical, luminescence, cherry-picked samples, set 2, artefact control for CDK5 inhibitor project, dose response (AID 504546); settings: ADP-Glo detection reagent counter screen, 5 uM ADP; at 30 µM (top of the series);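 further: 0% = DMSO wells and -100% = wells lacking ADP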

| Compound | activity change, negative = inhibition |
| --- | --- |
| CCc1ncc(/C=C2\C(=O)Nc3ccccc32)[nH]1 | inactive: 6.92% |
| Cc1cccc(C(=O)O/N=C(\N)c2ccccn2)c1 | inconclusive: -6.74% |
| CC(C)Oc1ccc(NC(=O)Oc2ccccc2)cc1 | inconclusive: -55.8% |
| COc1ccccc1C(=O)Nc1nc2ccccc2[nH]1 | inconclusive: -10.6% |
| CCN1/C(=C/C(C)=C/c2sc3ccccc3[n+]2CC)Sc2ccccc21 | inconclusive: -26.9% |
| Cc1nn(-c2ncccn2)c2c1C(=O)CC(C)(C)C2Br (stereo not given) | inactive: 5.02% |
| O=C(NNC(=O)c1cccs1)c1ccccc1 | inactive: -9.37% |
| COc1ccc(-c2cc3nc(C)cc(N)n3n2)cc1 | inconclusive: -21.1% |
| Cc1ccc(C(=O)O/N=C(\N)c2ccccn2)cc1 | inconclusive: -20.9% |
| Cc1ccc2nc(NCc3ccccc3)c(C#N)cc2c1 | inactive: 16.2% |
